{"source": "paper doi:10.1101/2022.08.24.505076", "target": "T1, GFP-MND1 (UniProt Q9BWT6)", "T1 sequence": "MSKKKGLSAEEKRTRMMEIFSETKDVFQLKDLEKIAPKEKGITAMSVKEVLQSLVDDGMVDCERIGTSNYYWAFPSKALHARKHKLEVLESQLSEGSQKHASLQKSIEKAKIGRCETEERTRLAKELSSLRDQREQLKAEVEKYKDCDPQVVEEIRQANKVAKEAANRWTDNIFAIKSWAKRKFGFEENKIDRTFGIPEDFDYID", "assay": "co-IP", "note": "No constants are given. Whether binding was seen depends on the method and setting. Binding seen in cells or lysates may run through a third protein. Some entries that bind do so weakly or less than the wild type. Sequences can lack the tags named with a protein."}
{"binder": "HOP2 (protein, UniProt Q9P2W1 1-217) MSKGRAEAAAGAAGILLRYLQEQNRPYSSQDVFGNLQREHGLGKAVVVKTLEQLAQQGKIKEKMYGKQKIYFADQDQFDMVSDADLQVLDGKIVALTAKVQSLQQSCRYMEAELKELSSALTTPEMQKEIQELKKECAGYRERLKNIKAATNHVTPEEKEQVYRERQKYCKEWRKRKRMATELSDAILEGYPKSKKQFFEEVGIETDEDYNVTLPDP", "values": [{"measurement": "binding", "value": "binds"}]}
